Reference: patent US20210246886A1, “Fluorosulfones” (3M INNOVATIVE PROPERTIES COMPANY, priority 2018, published 2021)
Some entries share one result that the patent states for a list of compounds. At least one structure is not confirmed: it was looked up by name or label, or the drawing left a doubt.

Experiment: Thermal stability: fluoride ion after aging neat in Monel pressure vessel
Assay type: physicochemical
Conditions: 24 hours, absence of water
Experimental: The thermal stability of Example 3 and CE1 was determined by placing duplicate 10-gram samples in clean, 40 mL Monel pressure vessels and sealing tightly. The pressure vessels were then placed in a convection oven set at 100° C. for 24 hours. After aging, each sample was mixed with a known weight of ultrapure (18.2 MΩ) water, agitated in a mechanical shaker at high speed for 15 minutes and finally centrifuged to separate the two phases. Fluoride ion concentrations were subsequently measured in the water phase as previously described. This was then followed by another experiment at 150° C. using the same method.

O=S(=O)(C(F)(F)C(F)(F)F)C(F)(F)C(F)(F)F [Example 3, Perfluorodiethylsulfone]
fluoride ion concentrations at 100 and 150° C.: less than 0.5 ppmw
